{"source": "patent US20260078110A1", "about": "“SESTERTERPENOID COMPOUNDS AND EXTRACT L01 OF LEUCOSCEPTRUM CANUM, AND USE THEREOF IN TREATMENT OF PSORIASIS” (Kunming Institute of Botany, CAS, priority 2023, published 2026)", "note": "Some entries share one result that the patent states for a list of compounds.", "data": [{"test_system": "pro-inflammatory cytokine IFN-γ secretion by mouse T cells stimulated by CD3/CD28 monoclonal antibodies", "experiment": "Inhibition of IFN-γ secretion by mouse T cells stimulated by CD3/CD28 monoclonal antibodies (ELISA)", "type": "cell-based", "conditions": "CD3/CD28 mAb stimulated mouse T cells", "protocol": "CD3, CD28 monoclonal antibodies, and kit for IFN-γ detection were purchased from BD Bioscience, Cell Counting Kit-8 (CCK-8) was purchased from MeilunBio®, and RPMI-1640 medium and fetal bovine serum were purchased from Biological Industries.\nPreparation of samples to be tested: the 12 compounds of Example 1 were dissolved in DMSO, respectively to prepare 20 mM stock solutions.\nSplenocytes were aseptically isolated from 6-8 week old female C57BL/6 mice, and T cells were isolated using a nylon wool column method. The T cells were then inoculated (4×10^5 cells/well) in a 96-well plate (which was coated with 5 μg/mL of CD3 monoclonal antibody). At the same time, a prepared compound solution of 40 μM, 20 μM, 10 μM, 5 μM, 2.5 μM, or 1.25 μM along with a 2 μg/mL solution of CD28 monoclonal antibody were added into each group, respectively, which were cultured in a 37° C./5% CO2 incubator. After 48 h, the supernatant of the cells was collected and the IFN-γ secretion in the supernatant was detected by an Enzyme-Linked Immuno-Sorbent Assay (ELISA); 10 μL of CCK-8 solution was added into each well, and OD450 was measured after incubation at 37° C. for 4 h to evaluate cell proliferation. […] The inhibitory activity of the compounds on IFN-γ was calculated, and the half-maximal inhibitory concentration (IC50) was analyzed using GraphPadPrism software.", "values": [{"smiles": "CC1=C[C@@]2(O)[C@@](O)(OC1)[C@@H](C)[C@@H]1CC[C@H](C)[C@H]1[C@]2(O)C(=O)[C@H](C)CCc1occc1C", "note": "[Compound 6]", "secretion of the pro-inflammatory cytokine IFN-γ by mouse T cells (result in words)": "significantly inhibited"}, {"smiles": "CC(C)=C[C@]1(O)C(=O)[C@@H](C)[C@@H]2CC[C@H](C)[C@H]2[C@@]1(O)C(=O)[C@H](C)CCc1occc1C", "note": "[Compound 3]", "secretion of the pro-inflammatory cytokine IFN-γ by mouse T cells (result in words)": "significantly inhibited"}, {"smiles": "CC1=C[C@@]2(O)[C@@](O)(OC1)[C@@H](C)[C@@H]1CC[C@H](C)[C@H]1[C@]2(O)C(=O)[C@H](C)CC(=O)c1occc1C", "note": "[Compound 7]", "secretion of the pro-inflammatory cytokine IFN-γ by mouse T cells (result in words)": "significantly inhibited"}, {"smiles": "CC1=C[C@@]2(O)[C@@](O)(OC1)[C@@H](C)[C@@H]1CC[C@H](C)[C@H]1[C@@]2(O)C(=O)[C@@H](C)C[C@H]1C(=O)C(C)=C[C@@H]1O", "note": "[Compound 12]", "secretion of the pro-inflammatory cytokine IFN-γ by mouse T cells (result in words)": "significantly inhibited"}, {"smiles": "CC(C)=C[C@]1(O)C(=O)[C@@H](C)[C@@H]2CC[C@H](C)[C@H]2[C@]1(O)C(=O)[C@H](C)CC[C@@H]1OC(=O)C=C1C", "note": "[Compound 1]", "secretion of the pro-inflammatory cytokine IFN-γ by mouse T cells (result in words)": "significantly inhibited"}, {"smiles": "COC1(CC[C@@H](C)C(=O)[C@@]2(O)[C@H]3[C@@H](CC[C@@H]3C)[C@H](C)[C@]3(O)OCC(C)=C[C@@]32O)OC(=O)C=C1C", "note": "(stereo partly drawn) [Compound 9]", "secretion of the pro-inflammatory cytokine IFN-γ by mouse T cells (result in words)": "significantly inhibited"}, {"smiles": "CC(C)=C[C@]1(O)C(=O)[C@@H](C)[C@@H]2CC[C@H](C)[C@H]2[C@@]1(O)C(=O)[C@H](C)CC[C@@H]1OC(=O)C=C1C", "note": "[Compound 2]", "secretion of the pro-inflammatory cytokine IFN-γ by mouse T cells (result in words)": "significantly inhibited"}, {"smiles": "COC1C=C(C)C(CC[C@@H](C)C(=O)[C@@]2(O)[C@H]3[C@@H](CC[C@@H]3C)[C@H](C)[C@]3(O)OCC(C)=C[C@@]32O)(OC)O1", "note": "(stereo partly drawn) [Compound 10]", "secretion of the pro-inflammatory cytokine IFN-γ by mouse T cells (result in words)": "significantly inhibited"}, {"smiles": "CC1=C[C@@]2(O)[C@@](O)(OC1)[C@@H](C)[C@@H]1CC[C@H](C)[C@H]1[C@@]2(O)C(=O)[C@H](C)C[C@H]1C(=O)C(C)=C[C@@H]1O", "note": "[Compound 11]", "secretion of the pro-inflammatory cytokine IFN-γ by mouse T cells (result in words)": "significantly inhibited"}, {"smiles": "CC1=C[C@@]2(O)[C@@](O)(OC1)[C@@H](C)[C@@H]1CC[C@H](C)[C@H]1[C@]2(O)C(=O)[C@H](C)CCC1=C(C)CC(=O)O1", "note": "[Compound 8]", "secretion of the pro-inflammatory cytokine IFN-γ by mouse T cells (result in words)": "significantly inhibited"}, {"smiles": "CC1=C[C@@]2(O)[C@@](O)(OC1)[C@@H](C)[C@@H]1CC[C@H](C)[C@H]1[C@]2(O)C(=O)[C@H](C)CCO", "note": "[Compound 5]", "secretion of the pro-inflammatory cytokine IFN-γ by mouse T cells (result in words)": "significantly inhibited"}, {"smiles": "CC[C@@H](C)C(=O)[C@@]1(O)[C@H]2[C@@H](CC[C@@H]2C)[C@H](C)[C@]2(O)OCC(C)=C[C@@]21O", "note": "[Compound 4]", "secretion of the pro-inflammatory cytokine IFN-γ by mouse T cells (result in words)": "significantly inhibited"}]}]}
